Data from US7045532B2 (Millennium Pharmaceuticals, Inc., priority 1999, dated 2006).
Not every detail of the peptide structures is certain; ends, links or a residue may be inferred.

Protein sequences, listed by entry. Tags and fused reporters are not part of them. Residues count along the entry.
UniProt Q9BYF1, 18-740 limits assumed: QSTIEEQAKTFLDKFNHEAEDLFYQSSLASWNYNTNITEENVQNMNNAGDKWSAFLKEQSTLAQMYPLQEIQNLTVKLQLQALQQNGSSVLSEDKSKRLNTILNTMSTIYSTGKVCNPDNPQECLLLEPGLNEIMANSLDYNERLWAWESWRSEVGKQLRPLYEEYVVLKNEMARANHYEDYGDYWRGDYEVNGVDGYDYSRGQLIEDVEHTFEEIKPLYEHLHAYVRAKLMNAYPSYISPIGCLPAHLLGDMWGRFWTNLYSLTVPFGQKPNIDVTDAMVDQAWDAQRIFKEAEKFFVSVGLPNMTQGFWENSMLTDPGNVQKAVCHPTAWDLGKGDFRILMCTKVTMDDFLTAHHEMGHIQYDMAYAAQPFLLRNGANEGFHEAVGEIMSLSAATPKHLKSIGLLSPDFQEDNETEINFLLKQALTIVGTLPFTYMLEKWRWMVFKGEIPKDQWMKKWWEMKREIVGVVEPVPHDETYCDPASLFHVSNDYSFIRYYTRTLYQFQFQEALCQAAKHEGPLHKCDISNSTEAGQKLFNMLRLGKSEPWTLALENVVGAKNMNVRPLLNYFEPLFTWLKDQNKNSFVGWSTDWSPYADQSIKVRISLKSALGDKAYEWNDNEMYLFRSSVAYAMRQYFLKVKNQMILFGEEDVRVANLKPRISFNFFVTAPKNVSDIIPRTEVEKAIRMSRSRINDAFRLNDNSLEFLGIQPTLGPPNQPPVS

How the values were obtained:
ACE-2 [1] = molecular target: T1, ACE-2 (Homo sapiens, UniProt Q9BYF1); assay: Substrate optimization of fluorogenic ACE-2 substrates; settings: fluorogenic substrate of ACE-2
ACE-2 [2] = molecular target: T1, ACE-2; assay type: biochemical; parameters: a stop codon inserted after the serine immediately preceding the transmembrane domain; made in house; host or cells: CHO K1 cells (transient transfection, purified from conditioned medium)

| SMILES | Fluorescence Units/mol (ACE-2 [1]) [Units/mol] | hydrolysis by ACE-2 shown by mass spectroscopy (ACE-2 [2]) |
| --- | --- | --- |
| COc1ccc2c(CC(=O)N[C@@H](C)C(=O)N3CCC[C@H]3C(=O)N[C@@H](CCCCNc3ccc([N+](=O)[O-])cc3[N+](=O)[O-])C(=O)O)cc(=O)oc2c1 [AnaSpec MIPH-1, Mca-Ala-Pro-(Dnp)Lys-OH] | 2880 |  |
| COc1ccc2c(CC(=O)N[C@@H](Cc3ccc(O)cc3)C(=O)N[C@H](C(=O)N[C@@H](C)C(=O)N[C@@H](CC(=O)O)C(=O)N[C@@H](C)C(=O)N3CCC[C@H]3C(=O)N[C@@H](CCCCNc3ccc([N+](=O)[O-])cc3[N+](=O)[O-])C(=O)O)C(C)C)cc(=O)oc2c1 [Bachem M-2195, Mca-Tyr-Val-Ala-Asp-Ala-Pro-(Dnp)Lys-OH] | 600 | hydrolysed this substance between the P1 proline and P1′ (DNP)Lys |
